Results from PubChem BioAssay AID485298 (National Center for Advancing Translational Sciences (NCATS), 2010).
Hit rate of the full screen: of about 320,000 compounds, about 740 (0.23%) were called active. The shares of active, inactive and inconclusive entries below differ from those in the screen. The call rests on the fitted dose curve; in most records, active means well fitted activation curve with a large enough effect; inconclusive means small, poorly fitted or top-dose-only effect; inactive means no such curve, though single readings can be large or run the other way. Where the call is inconclusive, the potency comes from a doubtful curve fit.

Assay: qHTS Assay for Small Molecule Inhibitors of Mitochondrial Division or Activators of Mitochondrial Fusion; further: nearly all actives have a fitted effect of over 45% in size;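 on growth rescue (activation): temperature-sensitive fusion mutants such as fzo1-1 at 37 °C on non-fermentable ethanol glycerol medium; % of control where 0% means no effect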
Conditions: S. cerevisiae fusion-defective mutant growth rescue, CellTiterGlo 48 h; growth rescue (activation): at 46.1 µM (top of the series) unless noted
Procedure, shortened: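 Yeast fusion mutant, YPEG (non-fermentable carbon), compound, 48 h at 37C non-permissive; CellTiterGlo added, 10 min RT, luminescence read. Rescued growth = division inhibition.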
Potency means the concentration at half of the fitted maximal effect.

| Structure (SMILES) | Potency | growth rescue (activation) |
| --- | --- | --- |
| Cc1ccccc1NC(=O)Cc1nc(COC(=O)Cc2c(F)cccc2Cl)cs1 | inconclusive: 11.2 µM [activator, partial curve] |  |
| COc1ccccc1N1CCN(C(=O)CCCN2C(=O)c3cccc4cccc(c34)C2=O)CC1 | inconclusive: 35.5 µM [activator, single point] |  |
| CC1CC2(CCCC2)N(C(=O)c2ccccc2)Cc2ccccc21 (configuration not stated) | inconclusive: 17.8 µM [activator, partial curve] |  |
| Cc1ccc(C(=O)c2cn(Cc3ccc(Cl)cc3)c3nc(C)ccc3c2=O)cc1 | inconclusive: 10 µM [activator, partial curve] |  |
| CC1CN(CCCCOc2ccc(Cl)c3ccccc23)CC(C)O1 (configuration not stated) | inconclusive: 22.4 µM [activator, partial curve] |  |
| COc1ccc(C2=CC(=O)C[C@H](c3ccc(Cl)cc3)C2)cc1 | inconclusive: 22.4 µM [activator, single point] |  |
| Cc1ccc(OCC2Cn3c(nc4c3c(=O)[nH]c(=O)n4C)O2)cc1C (configuration not stated) |  | inactive: 15.9% |
| COc1ccc(S(=O)(=O)N(C)c2ccc(C(=O)NCc3ccco3)cc2)cc1OC |  | inactive: 1.49% |
| COc1ccccc1CNC(=O)CN1C(=O)COc2ccc(S(=O)(=O)NC3CCCC3)cc21 | inconclusive: 3.55 µM [activator, partial curve] |  |
| CC(C)CC(c1nnnn1C1CCCC1)N1CCN(c2ccccc2F)CC1 (configuration not stated) | inconclusive: 1.26 µM [activator, full curve] |  |
| Cc1ccccc1NC(=O)CCCSc1nc2ccccc2s1 | inconclusive: 22.4 µM [activator, single point] |  |
| COc1ccc(C2N=C(N)Nc3nc4ccccc4n32)cc1 (configuration not stated) |  | inactive: -1.56% |
| CC(C)NC(=O)c1sc2nc(-c3cccs3)cc(-c3cccs3)c2c1N |  | inactive: 2.45% |
| CC1(C(=O)NCc2ccc(F)cc2)Oc2ccccc2NC1=O (configuration not stated) | inconclusive: 3.98 µM [activator, single point] |  |
| COc1ccc(N(CC(=O)N2CCN(c3ccc(Cl)cc3)CC2)S(=O)(=O)c2c(C)n[nH]c2C)cc1 |  | inactive: -3.04% |
| CC(=O)N(CC(=O)O)c1ccccc1 |  | inactive: -3.87% |
| CCc1c(C)sc2nc3c(C(=O)N4CCOCC4)cc(C(=O)c4cc(F)ccc4O)cn3c(=O)c12 | inconclusive: 35.5 µM [activator, partial curve] |  |
| Cn1c(SCc2nc(-c3ccc(Cl)cc3)no2)nnc1-c1ccco1 |  | inactive: 6.35% |
| CCCCOCCCNC(=O)c1c(-c2ccccc2)noc1C |  | inactive: 0.613% |
| O=[N+]([O-])c1nn(-c2ccc3c(c2)OCCO3)n(O)c1=Nc1ccccc1 | inconclusive: 17.8 µM [activator, single point] |  |
| NC(=O)c1ccc(NC(=O)COC(=O)c2c3c(nc4ccccc24)/C(=C\c2ccc4c(c2)OCO4)CCC3)cc1 | inconclusive: 10 µM [activator, partial curve] |  |
| CCC(C)(C)C1CCC2(CC1)NC(=O)N(CC(=O)NC(C)CCc1ccccc1)C2=O (configuration not stated) |  | inactive: -2.88% |
| C=CCc1c(C)nc(-c2ccccc2)nc1Nc1ccc(O)cc1 | inconclusive: 15.8 µM [activator, partial curve] |  |
| COc1ccc(/C=C2\SC(N3CCc4ccccc4C3)=NC2=O)cc1 | inconclusive: 31.6 µM [activator, single point] |  |

Reformatted field by field: part of the list above.
COc1ccccc1CNC(=O)CN1C(=O)COc2ccc(S(=O)(=O)NC3CCCC3)cc21
  Potency: inconclusive: 3.55 µM [activator, partial curve]
CC(C)CC(c1nnnn1C1CCCC1)N1CCN(c2ccccc2F)CC1 (configuration not stated)
  Potency: inconclusive: 1.26 µM [activator, full curve]
Cc1ccccc1NC(=O)CCCSc1nc2ccccc2s1
  Potency: inconclusive: 22.4 µM [activator, single point]
COc1ccc(C2N=C(N)Nc3nc4ccccc4n32)cc1 (configuration not stated)
  growth rescue (activation): inactive: -1.56%

Compounds shown so far that contain a thiophene ring, fused or not (two):

| Structure (SMILES) | Potency | growth rescue (activation) |
| --- | --- | --- |
| CC(C)NC(=O)c1sc2nc(-c3cccs3)cc(-c3cccs3)c2c1N |  | inactive: 2.45% |
| CCc1c(C)sc2nc3c(C(=O)N4CCOCC4)cc(C(=O)c4cc(F)ccc4O)cn3c(=O)c12 | inconclusive: 35.5 µM [activator, partial curve] |  |

The results go on.

| Structure (SMILES) | Potency | growth rescue (activation) |
| --- | --- | --- |
| CCc1ccccc1NC1c2ccccc2C(=O)N1Cc1ccco1 (configuration not stated) | inconclusive: 20 µM [activator, single point] |  |
| Oc1ccc(-c2csc(-c3c[nH]c4ccccc34)n2)c(O)c1 | inconclusive: 25.1 µM [activator, partial curve] |  |
| Oc1ccc2ccccc2c1N=Nc1ccccn1 |  | inactive: -6.57% |
| CNC(=O)c1[nH]cnc1C(=O)N[C@@H](C)C(=O)OCc1ccccc1 | inconclusive: 35.5 µM [activator, single point] |  |
| COc1ccc(-c2cc(C(=O)N3CCCC(C(F)(F)F)C3)c3ccccc3n2)cc1 (configuration not stated) | inconclusive: 31.6 µM [activator, single point] |  |
| CC(C)(C)c1ccc(-n2ncc3c2CCCC3NC(=O)CN2CCCC2=O)cc1 (configuration not stated) |  | inactive: 9.98% |
| COC(=O)[C@H](C)NC(=O)Nc1cccc(C(F)(F)F)c1 |  | inactive: -9.71% |
| Cc1c(Cl)cccc1NC(=O)CCC(=O)NNC(=O)c1ccccc1 |  | inactive: 1.63% |
| N=c1c(C(=O)NCc2ccco2)cc2c(=O)n3ccccc3nc2n1Cc1ccc(Cl)cc1 |  | inactive: -3.96% |
| Cc1ccc(S(=O)(=O)c2nc(NN(C)C)sc2Cl)cc1 | inconclusive: 35.5 µM [activator, single point] |  |
| C[C@]1(C(=O)NCc2cc(F)cc(C(F)(F)F)c2)C=C[C@@H](Cc2ccccc2)N1C(=O)c1ccccc1 | inconclusive: 25.1 µM [activator, single point] |  |
| COc1ccc(/C=N/NC(=O)c2ccncc2)cc1CN1CCN(c2ccc(F)cc2)CC1 | inconclusive: 17.8 µM [activator, partial curve] |  |
| Cc1cc(C)cc(OCc2nnc(SCC(=O)N3CCN(c4ccccc4)CC3)o2)c1 | inconclusive: 6.31 µM [activator, single point] |  |
| c1ccc(-c2nc(NCC3CCCO3)c3oc4ccccc4c3n2)cc1 (configuration not stated) | inconclusive: 15.8 µM [activator, partial curve] |  |
| CC1CC(C)CN(S(=O)(=O)CC23CCC(CC2=O)C3(C)C)C1 (configuration not stated) | inconclusive: 35.5 µM [activator, single point] |  |
| O=C(NC(=S)Nc1ccc2[nH]ncc2c1)c1ccccc1 |  | inactive: -2.26% |
| O=C(Nc1cc(S(=O)(=O)N2CCOCC2)ccc1OCC(F)(F)F)C1=COCCO1 |  | inactive: 1.91% |
| CCOc1ccc2c(c1)OC(c1ccc(OC)cc1)(C(F)(F)F)NC2=O (configuration not stated) | inconclusive: 11.2 µM [activator, partial curve] |  |
| COc1ccc2c(c1)c(C(=O)O)c(C)n2-c1ccc(Cl)cc1 | inconclusive: 20 µM [activator, partial curve, poor fit] |  |
| Cc1cc(C)cc(NC(=O)CSc2nnc(-c3ccccc3)n2N)c1 | active: 0.631 µM |  |
| Cc1cccc(OCCCC(=O)N2CCCc3ccccc32)c1C | inconclusive: 15.8 µM [activator, partial curve] |  |
| Cc1nc(SCC(=O)N2CCc3ccccc3C2)c2c(C)c(C)sc2n1 | inconclusive: 12.6 µM [activator, single point] |  |
| Cc1ccc(S(=O)(=O)N2CCC(=O)N(C(COCc3ccc(Cl)cc3)Cc3ccccc3)CC2)cc1 (configuration not stated) |  | inactive: 14.7% |
| Cn1c(N)c(C(=O)CSc2ncn[nH]2)c(=O)n(C)c1=O |  | inactive: -1.89% |

| Structure (SMILES) | Potency | growth rescue (activation) |
| --- | --- | --- |
| COc1ccc(Cl)cc1C1=CC(=O)C[C@H](c2ccc(F)cc2)C1 | inconclusive: 7.08 µM [activator, partial curve] |  |
| Cc1cc(/C=C2/NC(=O)NC2=O)c(C)n1C | inconclusive: 20 µM [activator, partial curve] |  |
| CC(=O)NS(=O)(=O)c1ccc(N=NN2CCCCC2)cc1 |  | inactive: -1.89% |
| CC(C)C(=O)Nc1ccccc1C(=O)OCC(=O)c1ccc2c(c1)OCCO2 | inconclusive: 5.62 µM [activator, single point] |  |
| CCOC(=O)c1c(NC(=O)C2C3C=CC(CC3)C2C(=O)O)sc(C)c1C (configuration not stated) |  | inactive: 13.9% |
| Cc1cccc2cc(CN(Cc3cccs3)C(c3nnnn3C3CCCC3)C(C)C)c(=O)[nH]c12 (configuration not stated) | inconclusive: 7.08 µM [activator, partial curve] |  |
| CCOc1cc(/C=N/O)ccc1OCc1ccccc1F | inconclusive: 12.6 µM [activator, partial curve] |  |
| CC1=NN(C(N)=S)C(=O)C1N=Nc1cccc(C)c1 (configuration not stated) |  | inactive: -37.7% |
| O=c1[nH]c(=S)n(-c2cccc(Cl)c2)c(O)c1/C=N/N1CCOCC1 |  | inactive: -0.611% |
| O=C(Nc1cccc(Cl)c1)c1cccc(Oc2ccc([N+](=O)[O-])cc2Cl)c1 | inconclusive: 7.08 µM [activator, full curve, poor fit] |  |
| O=C(NC(=S)Nc1ccccc1N1CCCCC1)c1cccs1 |  | inactive: 2.45% |
| O=C(c1ccccn1)N1N=C2/C(=C/c3ccc(F)cc3)CCCC2C1c1ccc(F)cc1 (configuration not stated) | inconclusive: 35.5 µM [activator, single point] |  |
| CC1Cc2ccccc2N1C(=S)NC(=O)c1cccc(Br)c1 (configuration not stated) | inconclusive: 11.2 µM [activator, partial curve] |  |
| O=C(Nc1nc2c(s1)CCCC2)C1COc2ccccc2O1 (configuration not stated) | inconclusive: 31.6 µM [activator, single point] |  |
| Cc1ccc(C)c(N2CCN(C(=O)C3CCCN(S(=O)(=O)c4c(C)noc4C)C3)CC2)c1 (configuration not stated) |  | inactive: 11.9% |
| COc1ccc(C(=O)Nc2ccccc2Cc2ccccc2)c(OC)c1 | inconclusive: 20 µM [activator, single point] |  |
| Cc1cc(C)n(C(=O)CNc2cccc(Cl)c2C)n1 |  | inactive: 2.46% |
| O=C(NCc1ccc2c(c1)OCO2)c1ccc(CSCc2cccc(Cl)c2)o1 | inconclusive: 35.5 µM [activator, single point] |  |
| CCOc1ccc(N)cc1OC |  | inactive: -0.0756% |
| CC(=O)c1ccc(NS(=O)(=O)c2ccc3c(c2)N(C)CCO3)cc1 | inconclusive: 2.51 µM [activator, partial curve] |  |
| Cc1ccc(Oc2nc(CN3CCOCC3)nc3sc4c(c23)CCC(C)C4)cc1 (configuration not stated) | inconclusive: 25.1 µM [activator, single point] |  |
| O=C(O)c1ccc(-c2nc(-c3ccc(Cl)cc3Cl)cs2)cc1 | inconclusive: 5.62 µM [activator, single point] |  |
| CCCCC/C=C\CC(O)/C=C/c1cccc(CC(O)CCCCO)n1 (configuration not stated) | inconclusive: 18.4 µM [activator, partial curve] |  |
| CCN(CC(=O)Nc1cc(S(=O)(=O)N2CCCCC2)ccc1Cl)Cc1ccccc1 | inconclusive: 12.6 µM [activator, single point] |  |
